# Test results published in publication PMC7819943, “Rice protein-binding microarrays: a tool to detect cis-acting elements near promoter regions in rice”.
# This is one part of the list.
# Molecular target: T1, OsSMF1 (Oryza sativa, UniProt Q6ZLB0 1-436)
# T1 sequence: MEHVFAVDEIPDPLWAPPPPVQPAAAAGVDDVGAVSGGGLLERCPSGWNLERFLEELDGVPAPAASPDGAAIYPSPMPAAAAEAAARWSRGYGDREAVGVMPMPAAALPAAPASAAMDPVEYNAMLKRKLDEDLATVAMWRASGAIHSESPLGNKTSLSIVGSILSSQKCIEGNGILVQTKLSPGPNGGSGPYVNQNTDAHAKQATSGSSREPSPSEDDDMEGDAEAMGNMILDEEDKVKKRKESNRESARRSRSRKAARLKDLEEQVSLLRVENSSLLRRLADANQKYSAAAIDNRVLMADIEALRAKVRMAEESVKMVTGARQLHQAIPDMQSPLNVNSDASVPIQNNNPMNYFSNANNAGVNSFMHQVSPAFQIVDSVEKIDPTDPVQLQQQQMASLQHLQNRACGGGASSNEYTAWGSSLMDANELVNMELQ
# Assay: protein-binding microarray (RPBM); PBS, 2% BSA, 51.3 ng/ul salmon testes DNA, 50 uM zinc acetate, 200 nM TF, 25 C, 1 h; high values mean tight binding
# Details: protein: recombinant; tags: N-terminal polyhistidine and DsRed monomer fusion (pET32a); chain copies: 2; label: CyDye5-dUTP incorporated in the synthesized complementary strand; 3' TTTTT single-stranded linker to array surface; dsDNA, one strand shown
# How it was run: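 Using Ni–NTA, transcription factors fused N-terminally to polyhistidine and DsRed were purified after expression in E. coli BL21-CodonPlus. These were incubated at 200 nM with a blocked, double-stranded custom Agilent array for 1 h at 25 °C in a buffer containing 50 µM zinc acetate, and the array was washed. The binding signal is per-feature fluorescence intensity (arbitrary units) on an Axon 4000B scanner.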
row,Sequence,binding signal
1,GTATTCATGTGTTGCACAGAGCCACATATACACGGTACCCCGGAGTCACCTAGTGCAG,3420 fluorescence intensity (a.u.)
2,AATGGATGCGACGCGTGTTAGTCGAGTAGCCGAGTCCGACCGGAGTCACCTAGTGCAG,4160 fluorescence intensity (a.u.)
3,ACCAGCTAGTCCATGTTTCTGACCTGGATCTTGAATTCTGCGGAGTCACCTAGTGCAG,5180 fluorescence intensity (a.u.)
4,CAGAATTTACTGATCAGAAGAAACATCTAGTCATTTCATTCGGAGTCACCTAGTGCAG,3450 fluorescence intensity (a.u.)
5,CCATAAAGTTCTCACTCTCAACTTACAAACATCTGGTTATCGGAGTCACCTAGTGCAG,22400 fluorescence intensity (a.u.)
6,AAAGCTCCGCGGATCGGTGAATCCGCGGGTGGTGGCGGCGCGGAGTCACCTAGTGCAG,3220 fluorescence intensity (a.u.)
7,TCGTGTCGAACCCCGCGGCGAGCGGGTTCGACGACGCCCTCGGAGTCACCTAGTGCAG,3220 fluorescence intensity (a.u.)
8,TGTTTAAACTGTTGTTATGGTTAGTTCGGTCTATAACCGACGGAGTCACCTAGTGCAG,3550 fluorescence intensity (a.u.)
9,TTCCATGACACATCCTCCTGATCTTGGCATATTTGCCCTCCGGAGTCACCTAGTGCAG,4680 fluorescence intensity (a.u.)
10,ATATAAGTAATGCTAGATGAGTCAATGACATGTGGATCAGCGGAGTCACCTAGTGCAG,5110 fluorescence intensity (a.u.)
11,TATCAGGCGTGCATCCAAAGCAGGTGCAGAGACTATCTCACGGAGTCACCTAGTGCAG,9780 fluorescence intensity (a.u.)
12,TAGCTGGTGACGGAAGATATTTCCTACTTTATATCTCTTTCGGAGTCACCTAGTGCAG,3260 fluorescence intensity (a.u.)
13,CCCGATGACCACCCTACGCTAGCAATCTTCCTCTTGTCGTCGGAGTCACCTAGTGCAG,3690 fluorescence intensity (a.u.)
14,CGGGCAGGTTGTCGCCGTCATCGTGTGGTGCGATTGCAATCGGAGTCACCTAGTGCAG,3250 fluorescence intensity (a.u.)
15,TATATGTGTGTGTGACTGCAATCAGATTTATTGTATTTATCGGAGTCACCTAGTGCAG,3360 fluorescence intensity (a.u.)
16,ACTATAATGCTTACTACAGATGATGTGTCCATCTATTGTACGGAGTCACCTAGTGCAG,8370 fluorescence intensity (a.u.)
17,TGTCGGTGCCTCTGCTGCCACCATCACTGCAGTCAGGTACCGGAGTCACCTAGTGCAG,3180 fluorescence intensity (a.u.)
18,AAGTCACCGAAGCTGAGTCCGCCTGAACCCGACCCCGTGTCGGAGTCACCTAGTGCAG,3360 fluorescence intensity (a.u.)
19,TGCATAAATAATTGTGTCATATTACTCCTCAATAGTAGTACGGAGTCACCTAGTGCAG,3490 fluorescence intensity (a.u.)
20,ATCCATATCTCGGTCGCTACACGCGTTACATCCGTACGCTCGGAGTCACCTAGTGCAG,3200 fluorescence intensity (a.u.)
21,CAGAATATTTTGTCAGTCACTCTTGATCACTCTAGCAACACGGAGTCACCTAGTGCAG,3980 fluorescence intensity (a.u.)

row,Sequence,binding signal
1,ACGGCACCTCATAGATTATTCCGTCCGTTCCAACAACCTCCGGAGTCACCTAGTGCAG,3890 fluorescence intensity (a.u.)
2,GTAATAATAGATTATATTCAATTAATTAATTATTTATTATCGGAGTCACCTAGTGCAG,17400 fluorescence intensity (a.u.)
3,CCCCTAGCGAATTCTGGATTAGCTTGGCGTGACGCCGGTGCGGAGTCACCTAGTGCAG,3240 fluorescence intensity (a.u.)
4,GCTTCCTCCCTACGAGCACGACCCACCCACGTCATCATCCCGGAGTCACCTAGTGCAG,29000 fluorescence intensity (a.u.)
5,CCATCTCCGCTCCGCTCCTCTCCTCTCCTCTCCGTGCTACCGGAGTCACCTAGTGCAG,3160 fluorescence intensity (a.u.)
6,GCTAAGTACTCCGTTGTCACCGCGTCCTTGGTTTTGCTAACGGAGTCACCTAGTGCAG,3300 fluorescence intensity (a.u.)
7,CACACGAGCCACGCATCATCCAGCAACCAACCAACCACTACGGAGTCACCTAGTGCAG,4290 fluorescence intensity (a.u.)
8,CTTTTGGTCTCGCGCCCACTGACACGTGGGTCCCACGCTCCGGAGTCACCTAGTGCAG,6100 fluorescence intensity (a.u.)
9,CCTATCACGTGGCAGCCTGCCAGCCTTAACACGTAGCGGTCGGAGTCACCTAGTGCAG,7800 fluorescence intensity (a.u.)
10,TAAAATGGTTTGACATGTTATAATCACGTTAATTGCATGGCGGAGTCACCTAGTGCAG,3170 fluorescence intensity (a.u.)
11,GTACAGGTTGGAGCTAGCTATACAGACATACAACAGTCTTCGGAGTCACCTAGTGCAG,3360 fluorescence intensity (a.u.)
12,GAACATCATATCACCTATTATGTTTACTGTACATCCACATCGGAGTCACCTAGTGCAG,3260 fluorescence intensity (a.u.)
13,AACCTCTGCACCTCCTCCAACCAAACTAGCAGCTCCTGATCGGAGTCACCTAGTGCAG,3290 fluorescence intensity (a.u.)
14,ATAAATTTAAGTGCATTTTGGTTGACGTACTGACGTGTTTCGGAGTCACCTAGTGCAG,7800 fluorescence intensity (a.u.)
15,TGCCGTTAGTTGGGGTAAATTAGAGATGACAATGGGCCCCCGGAGTCACCTAGTGCAG,3420 fluorescence intensity (a.u.)
16,AATGGATCTAGACTATATCTATCTAGATTCATTAGTATCACGGAGTCACCTAGTGCAG,45400 fluorescence intensity (a.u.)
17,CTCGTCTCCCCACTGGCCGCCGCCACGTCTCGTCTCCTCCCGGAGTCACCTAGTGCAG,4270 fluorescence intensity (a.u.)
18,CTAGTCCATCGATCGAGGTTACACGCATGACGTACATAATCGGAGTCACCTAGTGCAG,3510 fluorescence intensity (a.u.)
19,CCTACGGCATCAACTAGCCTCGCTCCCATGTCATCTGCTGCGGAGTCACCTAGTGCAG,5080 fluorescence intensity (a.u.)
20,GGCGAGCTGTGGCGGTGGCCGGATGGCTGCTGTGGTGGCACGGAGTCACCTAGTGCAG,3350 fluorescence intensity (a.u.)
21,AAAGATGGATCGGACCGCTTGGCGCGCCCGCCTAACGTGGCGGAGTCACCTAGTGCAG,3360 fluorescence intensity (a.u.)

# Two neighbouring records from above:
row,Sequence,binding signal
9,CCTATCACGTGGCAGCCTGCCAGCCTTAACACGTAGCGGTCGGAGTCACCTAGTGCAG,7800 fluorescence intensity (a.u.)
10,TAAAATGGTTTGACATGTTATAATCACGTTAATTGCATGGCGGAGTCACCTAGTGCAG,3170 fluorescence intensity (a.u.)
